Binding data for 1 substance are collected here from patent US20250073350A1.

The chains behind the UniProt entries cited, without tags or fusion partners.
UniProt Q7M732: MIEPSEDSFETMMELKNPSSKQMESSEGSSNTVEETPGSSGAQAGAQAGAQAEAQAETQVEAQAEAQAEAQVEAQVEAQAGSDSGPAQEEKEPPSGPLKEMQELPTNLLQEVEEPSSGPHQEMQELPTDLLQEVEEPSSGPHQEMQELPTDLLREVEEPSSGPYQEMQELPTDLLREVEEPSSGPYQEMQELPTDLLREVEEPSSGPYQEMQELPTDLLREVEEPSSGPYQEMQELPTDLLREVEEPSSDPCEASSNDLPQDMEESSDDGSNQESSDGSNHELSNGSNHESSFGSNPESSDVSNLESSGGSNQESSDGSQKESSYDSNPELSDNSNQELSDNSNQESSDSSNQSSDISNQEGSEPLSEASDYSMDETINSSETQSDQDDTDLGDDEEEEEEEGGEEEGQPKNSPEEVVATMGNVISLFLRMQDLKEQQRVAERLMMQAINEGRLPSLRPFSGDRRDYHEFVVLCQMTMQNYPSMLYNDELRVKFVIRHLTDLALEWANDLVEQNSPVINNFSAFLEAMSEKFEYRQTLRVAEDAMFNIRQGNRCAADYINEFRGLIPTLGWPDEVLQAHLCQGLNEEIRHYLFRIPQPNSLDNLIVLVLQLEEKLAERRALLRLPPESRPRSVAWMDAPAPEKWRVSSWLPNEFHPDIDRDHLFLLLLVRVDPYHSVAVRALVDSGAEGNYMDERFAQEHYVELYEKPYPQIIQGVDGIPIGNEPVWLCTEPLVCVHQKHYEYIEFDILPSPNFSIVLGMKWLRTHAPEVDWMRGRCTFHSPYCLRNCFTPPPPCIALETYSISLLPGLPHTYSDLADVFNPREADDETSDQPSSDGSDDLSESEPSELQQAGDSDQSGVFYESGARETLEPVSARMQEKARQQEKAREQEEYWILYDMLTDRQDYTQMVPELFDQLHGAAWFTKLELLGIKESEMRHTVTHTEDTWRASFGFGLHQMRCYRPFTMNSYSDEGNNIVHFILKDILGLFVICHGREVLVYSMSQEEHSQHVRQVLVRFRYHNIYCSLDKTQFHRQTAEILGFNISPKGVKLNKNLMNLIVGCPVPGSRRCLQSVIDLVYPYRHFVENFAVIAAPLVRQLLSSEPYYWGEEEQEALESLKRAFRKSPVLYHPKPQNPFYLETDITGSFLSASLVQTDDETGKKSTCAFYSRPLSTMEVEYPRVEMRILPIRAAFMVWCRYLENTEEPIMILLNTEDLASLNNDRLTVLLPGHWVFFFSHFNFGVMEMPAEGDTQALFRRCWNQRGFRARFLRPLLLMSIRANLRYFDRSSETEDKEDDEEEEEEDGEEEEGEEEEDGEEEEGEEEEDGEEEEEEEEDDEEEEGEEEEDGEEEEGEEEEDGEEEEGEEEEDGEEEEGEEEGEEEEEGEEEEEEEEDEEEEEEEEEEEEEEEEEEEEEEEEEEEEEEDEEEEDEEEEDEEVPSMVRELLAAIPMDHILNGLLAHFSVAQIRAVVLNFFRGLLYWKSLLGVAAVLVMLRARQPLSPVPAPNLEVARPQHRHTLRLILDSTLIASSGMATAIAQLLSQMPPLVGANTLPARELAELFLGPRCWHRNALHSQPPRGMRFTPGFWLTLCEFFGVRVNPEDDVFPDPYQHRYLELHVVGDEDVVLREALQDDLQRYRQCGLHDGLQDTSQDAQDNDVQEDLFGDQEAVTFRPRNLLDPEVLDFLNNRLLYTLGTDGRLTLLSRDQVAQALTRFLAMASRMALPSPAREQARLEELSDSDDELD

This assay concerns the target MmRTL1, bacterially produced (mouse) (UniProt Q7M732). The assay is described as follows: self-association; size exclusion and electron microscopy of protein produced in E. coli. A general note: SEC sorts molecules by how far they enter the pores of the column.

These are yes or no findings as the source states them, for the method shown. Some entries that bind do so weakly or less than the wild type.

As for “MmRTL1, bacterially produced (from UniProt Q7M732 1-1744)”, the binding result is reported as “binds”.
